Measured values reported in PMC12741935 (Alzheimer's & Dementia, 2025).

System: brain proteome
Test: Brain proteomics (DIA LC-MS/MS) after chronic NVS-PAK1-1 100 mg/kg BID PO vs vehicle in 5xFAD mice
Assay type: in vivo
Conditions: for number of proteins down in 5xFAD and up in NVS-PAK1-1 / number of proteins up in 5xFAD and down in NVS-PAK1-1: either cohort
Protocol: A total of 91 brain samples were prepared from mice in this study and analyzed by mass spectrometry proteomics. One third of the mixed‐chopped left hemisphere tissue was homogenized in 8 M urea lysis buffer (8 M urea, 10 mM Tris, 100 mM NaH2PO4, pH 8.5) with HALT protease and phosphatase inhibitor cocktail (Thermo Fisher) and sonicated for three cycles consisting of 5 seconds of active sonication at 30% amplitude, followed by 15 seconds on ice. Samples were then centrifuged for 5 minutes at 15,000 g and the supernatant was transferred to a new tube. Protein concentration was determined by bicinchoninic acid (BCA) assay (Pierce). For protein digestion, 200 µg of each sample was aliquoted and volumes normalized with additional lysis buffer. Samples were reduced with 5 mM DTT at room temperature for 30 minutes, followed by 10 mM iodoacetamide (IAA) alkylation in the dark for another 30 minutes. Lysyl endopeptidase (Wako) at 1:25 (w/w) was added, and digestion allowed to proceed overnight. Samples were then 7‐fold diluted with 50 mM ammonium bicarbonate. Trypsin (Promega) was then added at 1:25 (w/w) and digestion proceeded overnight. The peptide solutions were acidified to a final concentration of 1% (vol/vol) FA and 0.1% (vol/vol) TFA and desalted with a 10 mg HLB column (Oasis). Each HLB column was first rinsed with 1 mL of methanol, washed with 1 mL 50% (vol/vol) acetonitrile (ACN), and equilibrated with 2 × 1 mL 0.1% (vol/vol) TFA. The samples were then loaded onto the column and washed with 2 × 1 mL 0.1% (vol/vol) TFA. Elution was performed with 0.5 mL 50% (vol/vol) ACN. Samples were split into 50 µL and 400 µL aliquots. Residuals from all samples were combined to create a global internal standard pool.
Samples were resuspended in an equal volume of loading buffer (0.1% FA, 0.03% TFA, 1% ACN) and analyzed by LC‐MS/MS. Peptide eluents (1 µg) were separated on a Water's CSH (15 cm × 150 µM internal diameter [ID] with 1.7 µm CSH resin) by a Dionex Ultimate 3000 RSLCnano (Thermo Fisher). Buffer A was water with 0.1% (vol/vol) formic acid, and buffer B was 80% (vol/vol) acetonitrile in water with 0.1% (vol/vol) FA. Elution was performed over a 30 minute gradient. The gradient was from 1% to 99% solvent B. Peptides were monitored on an Orbitrap Fusion Lumos mass spectrometer (Thermo Fisher). Each cycle consisted of one full scan (MS1) performed with an m/z range of 380 to 985 at a 60,000 resolution at standard settings and 30 data independent scans (DIA) in 1.5 seconds. The higher energy collision‐induced dissociation (HCD) tandem scans were collected at 30% collision energy with an isolation of 10 m/z, a resolution of 15,000, an AGC setting of 200% normalized AGC target, and a maximum injection time set to 40 ms.
Raw data files were converted to mzML format for downstream processing using ThermoRawFilerParser v.1.4.4.[30] The data were processed using Data‐Independent Acquisition by Neural Network (DIA‐NN) v.1.9.1.[31] A spectral library was generated using all canonical mouse proteins from UniProt and SwissProt (accessed September 24, 2024) and contaminants from the Common Repository of Adventitious Proteins (cRAP) database [https://www.thegpm.org/crap/]; these contaminant proteins were excluded from normalization and downstream analysis. DIA‐NN was run using parameters specified as follows: precursor charge was set from 1 to 4 and precursor m/z was set from 200 to 5000. Enzyme digestion was set to strict trypsin with 1 allowed missed cleavage, peptide length was set from 7 to 50, and peptide m/z was set from 150 to 3000. The maximum number of variable modifications was set to 3 and methionine oxidation was allowed as a variable modification. Cysteine carbamidomethylation was allowed as a fixed modification. MS1 and MS2 mass accuracy (in ppm) were set using autodetect and the scan window was set using autodetect. The false discovery rate (FDR) threshold was set to 1%. […]

Structure (SMILES): CC(C)NC(=O)N1CC[C@H](NC2=Nc3cc(F)ccc3N(CC(F)F)c3ccc(Cl)cc32)C1 [NVS‐PAK1‐1, (S)‐3‐([2‐chloro‐5‐(2,2‐difluoroethyl)‐8‐fluoro‐5H‐dibenzo[b,e][1,4]diazepin‐11‐yl]amino)‐N‐isopropylpyrrolidine‐1‐carboxamide]
- number of significantly differentially expressed proteins, NVS-PAK1-1 vs vehicle-treated 5xFAD (aged cohort females): 101
- number of significantly differentially expressed proteins, NVS-PAK1-1 vs vehicle-treated 5xFAD (aged cohort males): 134
- number of proteins down in 5xFAD and up in NVS-PAK1-1 (females, adjusted P ≤ 0.05): 22
- number of proteins up in 5xFAD and down in NVS-PAK1-1 (females, adjusted P ≤ 0.05): 63
- number of proteins down in 5xFAD and up in NVS-PAK1-1 (males, adjusted P ≤ 0.05): 24
- number of proteins up in 5xFAD and down in NVS-PAK1-1 (males, adjusted P ≤ 0.05, overlap not significant): 20
- number of significantly differentially expressed proteins, NVS-PAK1-1 vs vehicle-treated 5xFAD (young cohort females): 190
- number of significantly differentially expressed proteins, NVS-PAK1-1 vs vehicle-treated 5xFAD (young cohort males): 129
